These are yes or no findings as the source states them, for the method shown. In cells and extracts the contact can be indirect. These calls come from enrichment with a bait or labelling near it, and not all partners need be listed.

Chains of the proteins cited; added tags and fusions are not shown. Residues count along the entry.
UniProt Q15843, residues 1-76: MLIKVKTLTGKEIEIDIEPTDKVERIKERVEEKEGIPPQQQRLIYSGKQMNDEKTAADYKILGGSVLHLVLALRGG
UniProt Q9UBN7: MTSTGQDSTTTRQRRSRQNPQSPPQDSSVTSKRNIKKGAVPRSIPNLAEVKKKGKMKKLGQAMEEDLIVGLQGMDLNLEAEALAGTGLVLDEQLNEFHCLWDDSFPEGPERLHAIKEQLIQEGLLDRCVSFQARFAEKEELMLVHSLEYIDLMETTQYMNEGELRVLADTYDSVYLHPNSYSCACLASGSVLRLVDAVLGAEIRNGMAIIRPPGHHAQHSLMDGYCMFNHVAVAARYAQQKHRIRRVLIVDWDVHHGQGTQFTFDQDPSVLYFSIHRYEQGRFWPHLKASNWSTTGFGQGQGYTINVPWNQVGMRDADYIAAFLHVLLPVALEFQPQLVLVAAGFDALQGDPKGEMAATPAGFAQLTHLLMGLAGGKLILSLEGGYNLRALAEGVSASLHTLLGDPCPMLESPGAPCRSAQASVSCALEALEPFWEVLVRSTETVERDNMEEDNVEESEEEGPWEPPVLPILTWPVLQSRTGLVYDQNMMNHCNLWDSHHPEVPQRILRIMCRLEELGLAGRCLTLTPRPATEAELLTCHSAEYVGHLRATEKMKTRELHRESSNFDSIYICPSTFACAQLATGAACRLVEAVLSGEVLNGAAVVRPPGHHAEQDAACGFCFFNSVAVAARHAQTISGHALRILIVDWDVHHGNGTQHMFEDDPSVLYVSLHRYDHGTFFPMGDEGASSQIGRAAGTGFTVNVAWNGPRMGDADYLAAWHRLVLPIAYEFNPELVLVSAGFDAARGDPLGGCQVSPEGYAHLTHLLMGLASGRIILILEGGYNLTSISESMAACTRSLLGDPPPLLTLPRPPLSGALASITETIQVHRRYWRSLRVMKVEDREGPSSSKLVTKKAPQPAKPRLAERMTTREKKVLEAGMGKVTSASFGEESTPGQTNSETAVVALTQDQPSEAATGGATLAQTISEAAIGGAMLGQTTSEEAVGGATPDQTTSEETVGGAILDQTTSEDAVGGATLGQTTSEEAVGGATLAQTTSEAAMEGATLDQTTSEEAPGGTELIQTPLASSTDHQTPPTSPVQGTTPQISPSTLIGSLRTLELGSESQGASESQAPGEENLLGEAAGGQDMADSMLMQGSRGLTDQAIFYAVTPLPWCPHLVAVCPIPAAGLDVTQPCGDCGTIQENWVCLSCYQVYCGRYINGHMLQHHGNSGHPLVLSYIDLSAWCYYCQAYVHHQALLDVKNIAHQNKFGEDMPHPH

The results in this text go back to paper PMC9020517.

In this assay the target is Strep-pNEDD8 (human NEDD8 1-76 phosphorylated at S65, N-terminal Strep-tag II) (human) (UniProt Q15843). The assay can be described thus: affinity purification with mass spectrometry; 25 µg Strep-Ub/NEDD8 variant as bait with 2.5 mg HEK293T or SHSY5Y whole-cell lysate, Strep-Tactin Superflow beads, 4 °C 3 h, 1x PBS, 2 mM MgCl2, 1 mM DTT, non-denaturing; empty beads as control; label-free quantitative MS, ANOVA (FDR 0.02, S0 1); only the target purified.

Consider HDAC6 (from UniProt Q9UBN7 1-1215), for which the binding result is “binds”.
